The supplement of paper PMC10849652
This is one part of the list.

Chains of the proteins cited; added tags and fusions are not shown. Lines headed by an entry give the natural chain unless they say otherwise; changes in a name come on top.
UniProt P51149, whole entry, looked up: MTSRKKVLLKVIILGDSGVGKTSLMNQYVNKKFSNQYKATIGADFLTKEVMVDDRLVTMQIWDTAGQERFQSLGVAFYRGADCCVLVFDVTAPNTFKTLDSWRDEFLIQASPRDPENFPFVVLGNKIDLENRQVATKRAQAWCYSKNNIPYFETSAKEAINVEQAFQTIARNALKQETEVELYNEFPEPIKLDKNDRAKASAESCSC
UniProt P54725: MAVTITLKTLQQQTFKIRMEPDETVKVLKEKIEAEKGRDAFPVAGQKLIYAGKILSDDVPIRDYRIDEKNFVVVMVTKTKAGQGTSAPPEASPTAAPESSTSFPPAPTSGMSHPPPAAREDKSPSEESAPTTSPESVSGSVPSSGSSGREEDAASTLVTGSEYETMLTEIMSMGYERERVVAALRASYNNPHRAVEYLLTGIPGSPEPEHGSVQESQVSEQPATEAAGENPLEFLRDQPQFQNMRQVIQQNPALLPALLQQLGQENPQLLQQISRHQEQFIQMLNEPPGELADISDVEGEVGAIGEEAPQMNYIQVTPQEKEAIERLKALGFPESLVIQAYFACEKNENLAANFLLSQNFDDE
UniProt Q15291, whole entry, looked up: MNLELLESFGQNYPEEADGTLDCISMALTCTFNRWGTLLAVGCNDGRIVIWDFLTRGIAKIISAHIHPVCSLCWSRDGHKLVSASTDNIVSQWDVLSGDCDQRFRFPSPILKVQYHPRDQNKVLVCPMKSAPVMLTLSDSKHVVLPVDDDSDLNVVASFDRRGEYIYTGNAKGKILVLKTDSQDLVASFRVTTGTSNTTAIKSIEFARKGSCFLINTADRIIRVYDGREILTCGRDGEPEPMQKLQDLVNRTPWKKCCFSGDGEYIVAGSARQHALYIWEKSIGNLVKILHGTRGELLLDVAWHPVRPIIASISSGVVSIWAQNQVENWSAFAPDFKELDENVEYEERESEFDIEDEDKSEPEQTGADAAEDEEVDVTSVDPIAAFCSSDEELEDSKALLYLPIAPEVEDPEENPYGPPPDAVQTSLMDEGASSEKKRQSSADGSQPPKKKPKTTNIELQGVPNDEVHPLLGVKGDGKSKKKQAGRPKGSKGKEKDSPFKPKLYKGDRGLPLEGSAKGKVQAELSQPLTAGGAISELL
UniProt P20340: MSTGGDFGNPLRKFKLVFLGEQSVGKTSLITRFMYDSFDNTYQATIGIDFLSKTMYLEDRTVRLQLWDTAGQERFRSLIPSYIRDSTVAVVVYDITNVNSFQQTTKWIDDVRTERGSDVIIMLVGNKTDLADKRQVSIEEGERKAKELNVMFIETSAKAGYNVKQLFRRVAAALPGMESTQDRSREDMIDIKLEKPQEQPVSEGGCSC
UniProt Q99638: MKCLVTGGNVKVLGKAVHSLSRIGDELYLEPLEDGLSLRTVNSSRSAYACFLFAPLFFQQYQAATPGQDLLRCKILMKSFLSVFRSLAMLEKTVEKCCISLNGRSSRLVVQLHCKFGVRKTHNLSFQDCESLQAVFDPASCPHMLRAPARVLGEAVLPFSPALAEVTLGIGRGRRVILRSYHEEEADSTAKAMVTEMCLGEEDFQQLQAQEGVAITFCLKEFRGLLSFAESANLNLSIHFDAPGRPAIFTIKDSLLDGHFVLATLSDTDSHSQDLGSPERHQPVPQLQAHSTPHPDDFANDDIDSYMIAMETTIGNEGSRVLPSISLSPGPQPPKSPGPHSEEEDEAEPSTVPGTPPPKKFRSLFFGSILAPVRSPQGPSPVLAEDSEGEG
UniProt Q15042: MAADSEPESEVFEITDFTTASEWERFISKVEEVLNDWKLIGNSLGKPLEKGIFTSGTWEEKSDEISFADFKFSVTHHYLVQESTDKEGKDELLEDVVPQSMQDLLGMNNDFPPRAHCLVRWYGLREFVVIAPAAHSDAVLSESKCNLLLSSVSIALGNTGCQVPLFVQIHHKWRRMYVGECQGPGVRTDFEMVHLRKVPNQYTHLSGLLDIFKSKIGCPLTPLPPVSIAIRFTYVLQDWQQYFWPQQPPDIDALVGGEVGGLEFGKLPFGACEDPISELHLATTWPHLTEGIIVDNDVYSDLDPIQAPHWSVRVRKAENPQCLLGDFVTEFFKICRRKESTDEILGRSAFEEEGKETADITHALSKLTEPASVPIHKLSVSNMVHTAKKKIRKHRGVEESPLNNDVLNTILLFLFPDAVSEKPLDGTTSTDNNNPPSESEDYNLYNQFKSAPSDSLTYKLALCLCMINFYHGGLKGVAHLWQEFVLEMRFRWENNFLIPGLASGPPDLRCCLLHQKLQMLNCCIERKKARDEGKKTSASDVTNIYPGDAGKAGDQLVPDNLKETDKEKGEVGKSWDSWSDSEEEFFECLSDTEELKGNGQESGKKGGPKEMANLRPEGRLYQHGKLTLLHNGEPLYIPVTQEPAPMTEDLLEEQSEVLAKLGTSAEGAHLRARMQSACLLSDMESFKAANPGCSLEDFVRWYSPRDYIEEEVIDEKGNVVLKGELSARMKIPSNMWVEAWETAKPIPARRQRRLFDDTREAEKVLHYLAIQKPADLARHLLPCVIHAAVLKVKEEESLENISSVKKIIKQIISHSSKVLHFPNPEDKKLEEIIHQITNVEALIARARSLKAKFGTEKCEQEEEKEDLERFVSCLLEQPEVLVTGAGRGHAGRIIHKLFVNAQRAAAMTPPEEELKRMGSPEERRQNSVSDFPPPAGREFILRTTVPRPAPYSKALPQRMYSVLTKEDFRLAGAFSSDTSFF
UniProt P61019: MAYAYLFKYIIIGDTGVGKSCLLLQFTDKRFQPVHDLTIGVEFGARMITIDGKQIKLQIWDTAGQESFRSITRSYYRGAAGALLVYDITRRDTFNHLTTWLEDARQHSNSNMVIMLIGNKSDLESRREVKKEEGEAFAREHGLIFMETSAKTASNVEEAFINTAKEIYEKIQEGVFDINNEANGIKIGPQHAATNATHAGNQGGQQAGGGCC
UniProt P61006: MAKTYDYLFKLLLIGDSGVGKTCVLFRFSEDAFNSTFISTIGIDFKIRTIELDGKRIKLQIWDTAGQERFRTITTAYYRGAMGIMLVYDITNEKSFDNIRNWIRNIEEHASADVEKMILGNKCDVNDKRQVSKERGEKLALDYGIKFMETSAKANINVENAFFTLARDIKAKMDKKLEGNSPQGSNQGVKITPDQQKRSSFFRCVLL
UniProt Q15276: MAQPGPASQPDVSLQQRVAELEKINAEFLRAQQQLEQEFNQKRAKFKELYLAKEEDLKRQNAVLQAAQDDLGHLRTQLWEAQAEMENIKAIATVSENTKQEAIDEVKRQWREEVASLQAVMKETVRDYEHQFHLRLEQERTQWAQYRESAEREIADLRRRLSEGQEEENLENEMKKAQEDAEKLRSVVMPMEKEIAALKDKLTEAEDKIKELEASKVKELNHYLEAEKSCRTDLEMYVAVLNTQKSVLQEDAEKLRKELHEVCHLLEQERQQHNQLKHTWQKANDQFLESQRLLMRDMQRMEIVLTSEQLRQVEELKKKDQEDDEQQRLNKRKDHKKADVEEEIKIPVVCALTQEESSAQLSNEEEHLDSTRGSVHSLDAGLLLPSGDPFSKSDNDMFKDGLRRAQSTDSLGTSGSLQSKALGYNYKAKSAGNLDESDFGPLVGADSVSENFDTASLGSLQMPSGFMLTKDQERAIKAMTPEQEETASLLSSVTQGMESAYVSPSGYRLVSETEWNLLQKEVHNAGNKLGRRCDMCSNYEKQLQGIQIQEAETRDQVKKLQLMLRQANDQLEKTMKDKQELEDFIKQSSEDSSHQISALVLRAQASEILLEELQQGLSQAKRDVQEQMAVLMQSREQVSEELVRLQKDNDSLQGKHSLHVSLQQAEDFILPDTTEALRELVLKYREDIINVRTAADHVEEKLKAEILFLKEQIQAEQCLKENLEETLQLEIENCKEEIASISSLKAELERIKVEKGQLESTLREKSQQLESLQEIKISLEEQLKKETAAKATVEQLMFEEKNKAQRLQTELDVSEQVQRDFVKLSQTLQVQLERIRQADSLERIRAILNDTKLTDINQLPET
UniProt Q9NP72: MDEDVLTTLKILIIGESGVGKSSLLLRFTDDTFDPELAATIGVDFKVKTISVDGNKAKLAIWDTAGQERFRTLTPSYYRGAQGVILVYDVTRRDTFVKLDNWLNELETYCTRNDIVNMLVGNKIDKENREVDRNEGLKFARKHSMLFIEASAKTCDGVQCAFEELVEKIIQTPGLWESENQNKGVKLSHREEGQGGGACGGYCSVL
UniProt P54727: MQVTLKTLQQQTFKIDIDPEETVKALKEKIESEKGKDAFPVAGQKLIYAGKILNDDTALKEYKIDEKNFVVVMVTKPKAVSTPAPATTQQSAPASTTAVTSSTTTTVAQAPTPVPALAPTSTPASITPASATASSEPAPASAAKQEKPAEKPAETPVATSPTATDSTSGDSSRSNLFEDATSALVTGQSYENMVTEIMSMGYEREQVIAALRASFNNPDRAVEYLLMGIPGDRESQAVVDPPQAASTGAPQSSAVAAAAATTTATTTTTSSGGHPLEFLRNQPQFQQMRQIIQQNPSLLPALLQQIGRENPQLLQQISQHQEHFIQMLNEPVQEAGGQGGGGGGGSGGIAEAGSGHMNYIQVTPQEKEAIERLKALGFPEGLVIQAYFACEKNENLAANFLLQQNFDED
UniProt P43487, whole entry, looked up: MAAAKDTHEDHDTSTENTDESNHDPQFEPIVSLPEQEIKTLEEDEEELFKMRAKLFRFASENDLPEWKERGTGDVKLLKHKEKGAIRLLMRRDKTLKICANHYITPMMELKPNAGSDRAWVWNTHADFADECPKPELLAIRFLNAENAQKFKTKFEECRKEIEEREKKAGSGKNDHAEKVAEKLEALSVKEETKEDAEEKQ
UniProt P51153: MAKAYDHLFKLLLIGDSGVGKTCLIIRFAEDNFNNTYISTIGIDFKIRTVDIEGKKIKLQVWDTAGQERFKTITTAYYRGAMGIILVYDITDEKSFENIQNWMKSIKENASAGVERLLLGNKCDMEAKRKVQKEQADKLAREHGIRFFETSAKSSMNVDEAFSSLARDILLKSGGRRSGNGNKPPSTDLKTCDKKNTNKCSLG
UniProt Q9H2T7: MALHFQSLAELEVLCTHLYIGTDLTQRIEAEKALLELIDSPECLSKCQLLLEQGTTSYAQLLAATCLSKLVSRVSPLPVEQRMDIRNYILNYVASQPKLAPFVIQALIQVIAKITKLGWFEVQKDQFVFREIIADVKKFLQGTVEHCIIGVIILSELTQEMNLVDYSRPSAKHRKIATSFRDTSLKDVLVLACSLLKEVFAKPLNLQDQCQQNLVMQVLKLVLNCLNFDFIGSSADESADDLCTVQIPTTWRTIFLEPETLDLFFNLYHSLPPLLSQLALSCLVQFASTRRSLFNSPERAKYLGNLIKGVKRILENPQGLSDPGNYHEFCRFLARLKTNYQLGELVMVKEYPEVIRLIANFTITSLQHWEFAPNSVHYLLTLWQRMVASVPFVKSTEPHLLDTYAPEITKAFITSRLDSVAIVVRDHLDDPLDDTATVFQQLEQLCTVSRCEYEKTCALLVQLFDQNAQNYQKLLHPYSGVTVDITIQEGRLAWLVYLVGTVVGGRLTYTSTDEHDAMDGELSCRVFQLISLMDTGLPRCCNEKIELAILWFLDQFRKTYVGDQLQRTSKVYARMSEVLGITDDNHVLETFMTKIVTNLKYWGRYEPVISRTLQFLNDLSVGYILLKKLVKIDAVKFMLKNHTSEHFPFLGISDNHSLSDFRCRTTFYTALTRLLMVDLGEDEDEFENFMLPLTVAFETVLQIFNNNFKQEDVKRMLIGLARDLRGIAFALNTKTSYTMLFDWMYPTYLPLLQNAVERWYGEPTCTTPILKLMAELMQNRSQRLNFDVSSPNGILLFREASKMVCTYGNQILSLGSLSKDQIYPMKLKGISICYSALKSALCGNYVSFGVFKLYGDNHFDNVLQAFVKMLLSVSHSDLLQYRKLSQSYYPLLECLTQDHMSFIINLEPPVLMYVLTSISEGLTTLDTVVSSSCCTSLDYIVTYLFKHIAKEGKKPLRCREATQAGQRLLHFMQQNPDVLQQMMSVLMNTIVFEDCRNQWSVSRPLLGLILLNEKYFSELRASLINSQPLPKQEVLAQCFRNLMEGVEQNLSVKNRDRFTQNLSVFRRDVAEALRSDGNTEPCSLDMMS
UniProt P11234: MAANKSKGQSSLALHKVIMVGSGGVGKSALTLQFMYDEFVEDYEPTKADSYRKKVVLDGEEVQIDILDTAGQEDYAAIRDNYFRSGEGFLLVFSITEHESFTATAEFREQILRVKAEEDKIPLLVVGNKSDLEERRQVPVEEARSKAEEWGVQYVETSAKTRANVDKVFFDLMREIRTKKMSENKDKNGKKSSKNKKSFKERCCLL
UniProt Q15286: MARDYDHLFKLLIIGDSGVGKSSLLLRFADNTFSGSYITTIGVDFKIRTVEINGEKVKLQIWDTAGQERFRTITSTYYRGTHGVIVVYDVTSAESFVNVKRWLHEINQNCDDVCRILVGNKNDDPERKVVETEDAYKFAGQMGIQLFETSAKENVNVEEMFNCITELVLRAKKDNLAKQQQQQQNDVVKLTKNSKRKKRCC

Tests used:
Test in all cases: log2 fold change, soluble protein after heating vs DMSO (PISA); higher = thermal stabilisation; K562 cells, 10 uM, 30 min; active = over 0.2 and 3.5 SD of the protein, either way, in both replicates (recomputed)
[1] = compound: CC[C@@H]1C(=O)N(C)c2cnc(Nc3ccc(C(=O)NC4CCN(C)CC4)cc3OC)nc2N1C1CCCC1
How it was run: (§1)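 For each measurement, 10 μM compound was applied for 30 min to K562 cells at 2×10^6 cells/mL. Aliquots were heated for 3 min across 48°C-58°C, pooled, and extracted in PBS with 0.5% NP-40 at 4°C; the supernatant after 21,000xg for 90 min was soluble protein. This was quantified by TMTpro 16plex LC-MS/MS with channel sums equalised, and thermal stability was reported relative to control samples from duplicates, on a log2 fold-change scale.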

volasertib = compound: CC[C@@H]1C(=O)N(C)c2cnc(Nc3ccc(C(=O)N[C@H]4CC[C@H](N5CCN(CC6CC6)CC5)CC4)cc3OC)nc2N1C(C)C [volasertib]
How it was run: as §1

[2] = compound: CC[C@H](C)N1C=C(C2=C(C=C(C=C21)C3=CN=C(C=C3)N4CCNCC4)C(=O)NCC5=C(C=C(NC5=O)C)C)C
How it was run: as §1

epoxomicin = compound: CC[C@H](C)[C@@H](C(=O)N[C@@H]([C@@H](C)O)C(=O)N[C@@H](CC(C)C)C(=O)[C@]1(CO1)C)NC(=O)[C@H]([C@@H](C)CC)N(C)C(=O)C [epoxomicin]
How it was run: as §1

[3] = compound: CCn1c(C(=O)N(C2CC2)C2CC2)cc2c3c(ncn3C)c(Nc3cc(C)n(C)n3)nc21
How it was run: as §1

[4] = compound: CCn1cc(-c2ccnc3[nH]c(-c4cccc(CN(C)C)c4)cc23)c(-c2ccc(NC(=O)N(C)C)cc2)n1
How it was run: as §1

[5] = compound: CN(C)CC(=O)Nc1ccc2[nH]c(=O)c3ccccc3c2c1
How it was run: as §1

rosiglitazone = compound: CN(CCOC1=CC=C(C=C1)C[C@H]2C(=O)NC(=O)S2)C3=CC=CC=N3 (racemic) [rosiglitazone]
How it was run: as §1

[6] = compound: CN1C2=C(C3=C1C(=O)N(N=C3)CC4=CC(=CC=C4)N)SC(=C2)S(=O)C
How it was run: as §1

[7] = compound: CN1CCC(CNc2ccc3ncc(-c4cccc(OC(F)(F)F)c4)n3n2)CC1
How it was run: as §1

Measured: log2 fold change

RBBP4 (UniProt Q09028)
inactive: [1] 0.014 | volasertib -0.015 | [2] -0.032 | epoxomicin 0.017 | [3] -0.012 | [4] -0.016 | [5] 0.021 | rosiglitazone 0.001 | [6] -0.132 | [7] 0.063

RAD21 (UniProt O60216)
inactive: [1] -0.019 | volasertib -0.071 | [2] 0.017 | epoxomicin 0.036 | [3] -0.017 | [4] 0.019 | [5] -0.011 | rosiglitazone -0.006 | [6] -0.059 | [7] -0.101

RAB7A (UniProt P51149)
inactive: [1] 0.014 | volasertib 0.061 | [2] -0.024 | epoxomicin 0.005 | [3] 0.014 | [4] 0.006 | [5] -0.024 | rosiglitazone -0.023 | [6] -0.042 | [7] 0.023

RAD23A (UniProt P54725)
inactive: [1] 0.056 | volasertib 0.092 | [2] -0.035 | epoxomicin -0.021 | [3] 0.046 | [4] 0.069 | [5] -0.012 | rosiglitazone -0.009 | [6] -0.052 | [7] -0.013

RAB14 (UniProt P61106)
inactive: [1] 0.03 | volasertib 0.039 | [2] -0.047 | epoxomicin -0.011 | [3] 0.028 | [4] -0.005 | [5] 0.02 | rosiglitazone -0.001 | [6] -0.055 | [7] 0.071

RBBP5 (UniProt Q15291)
inactive: [1] 0.045 | volasertib -0.02 | [2] -0.061 | epoxomicin -0.012 | [3] 0.013 | [4] 0.045 | [5] -0.037 | rosiglitazone -0.021 | [6] -0.009 | [7] 0.065

RAB6A isoform 2 (UniProt P20340)
inactive: [1] -0.007 | volasertib 0.048 | [2] -0.021 | epoxomicin -0.047 | [3] 0.01 | [4] -0.054 | [5] -0.036 | rosiglitazone -0.002 | [6] -0.043 | [7] 0.076

RAD9A (UniProt Q99638)
inactive: [1] -0.066 | volasertib -0.046 | [2] -0.061 | epoxomicin 0.025 | [3] -0.019 | [4] -0.109 | [5] -0.019 | rosiglitazone 0.01 | [6] -0.088 | [7] -0.038

RAB3GAP1 (UniProt Q15042)
inactive: [1] -0.143 | volasertib -0.456 | [2] 0.019 | epoxomicin 0.019 | [3] 0.036 | [4] 0.061 | [5] 0.044 | rosiglitazone 0.068 | [6] 0.093 | [7] -0.207

RAB2A (UniProt P61019)
inactive: [1] -0.022 | volasertib 0.053 | [2] -0.047 | epoxomicin -0.018 | [3] 0.028 | [4] -0.017 | [5] 0.01 | rosiglitazone 0.025 | [6] 0.011 | [7] -0.019

RAB8A (UniProt P61006)
inactive: [1] 0.029 | volasertib -0.008 | [2] -0.053 | epoxomicin -0.026 | [3] 0.023 | [4] 0.013 | [5] -0.013 | rosiglitazone -0.025 | [6] -0.08 | [7] 0.07

RABEP1 (UniProt Q15276)
inactive: [1] 0.037 | volasertib -0.128 | [2] -0.015 | epoxomicin -0.017 | [3] -0.026 | [4] -0.007 | [5] 0.016 | rosiglitazone 0.025 | [6] -0.032 | [7] -0.062

RAB18 (UniProt Q9NP72)
inactive: [1] 0.053 | volasertib 0.029 | [2] -0.02 | epoxomicin 0.006 | [3] -0.005 | [4] -0.056 | [5] -0.025 | rosiglitazone -0.017 | [6] -0.044 | [7] 0.038

RBFA (UniProt Q8N0V3)
inactive: [1] -0.081 | volasertib 0.024

RAD23B (UniProt P54727)
inactive: [1] 0.006 | volasertib 0.078 | [2] -0.03 | epoxomicin 0.011 | [3] 0.024 | [4] -0.013 | [5] -0.033 | rosiglitazone -0.058 | [6] -0.018 | [7] 0.051

RAMAC (UniProt Q9BTL3)
inactive: [1] 0.183 | volasertib 0.215 | [2] -0.067 | epoxomicin -0.086 | [3] 0.016 | [4] 0.11 | [5] -0.032 | rosiglitazone -0.045 | [6] 0.097 | [7] 0.202

RAB5A (UniProt P20339)
inactive: [1] -0.029 | volasertib -0.047 | [2] 0.005 | epoxomicin 0.024 | [3] 0.018 | [4] -0.005 | [5] 0.063 | rosiglitazone -0.001 | [6] 0.039 | [7] 0.085

RANGRF (UniProt Q9HD47)
inactive: [1] 0.003

RANBP1 (UniProt P43487)
inactive: [1] -0.022 | volasertib 0.078 | [2] -0.013 | epoxomicin 0.025 | [3] 0.005 | [4] -0.012 | [5] -0.011 | rosiglitazone 0.002 | [6] -0.01 | [7] -0.043

RAB13 (UniProt P51153)
inactive: [1] -0.015 | volasertib 0.018 | [2] 0 | epoxomicin 0.093 | [3] 0.06 | [4] 0.021 | [5] 0.055 | rosiglitazone -0.008 | [6] -0.06 | [7] 0.185

RACGAP1 (UniProt Q9H0H5)
inactive: [1] -0.041 | volasertib -0.087 | [2] -0.023 | epoxomicin -0.05 | [3] -0.012 | [4] 0.061 | [5] 0.136 | rosiglitazone 0.035 | [6] 0.116 | [7] -0.313

RAB24 (UniProt Q969Q5)
inactive: [1] 0.006 | volasertib -0.009 | [2] -0.008 | epoxomicin 0.057 | [3] -0.01 | [4] 0.015 | [5] 0 | rosiglitazone -0.024 | [6] -0.053 | [7] 0.051

RANBP17 (UniProt Q9H2T7)
inactive: [1] -0.184 | volasertib -0.196 | [2] 0.095 | epoxomicin -0.009 | [3] -0.044 | [4] -0.109 | [5] 0.06 | rosiglitazone 0.129 | [6] -0.037 | [7] -0.224

RAB5B (UniProt P61020)
inactive: [1] 0.049 | volasertib -0.022 | [2] -0.034 | epoxomicin -0.032 | [3] 0.05 | [4] -0.085 | [5] -0.024 | rosiglitazone 0.009 | [6] -0.121 | [7] 0.003

Reprinted from the listing (2 entries):
RACGAP1 (UniProt Q9H0H5)
inactive: [1] -0.041 | volasertib -0.087 | [2] -0.023 | epoxomicin -0.05 | [3] -0.012 | [4] 0.061 | [5] 0.136 | rosiglitazone 0.035 | [6] 0.116 | [7] -0.313

RAB24 (UniProt Q969Q5)
inactive: [1] 0.006 | volasertib -0.009 | [2] -0.008 | epoxomicin 0.057 | [3] -0.01 | [4] 0.015 | [5] 0 | rosiglitazone -0.024 | [6] -0.053 | [7] 0.051

Following part

RAB2B (UniProt Q8WUD1)
inactive: [1] 0.034 | volasertib 0.01 | [2] 0.037 | epoxomicin 0.027 | [3] -0.007 | [4] -0.03 | [5] -0.013 | rosiglitazone 0.022 | [6] -0.082 | [7] 0.088

RAN (UniProt P62826)
inactive: [1] 0.005 | volasertib 0.076 | [2] -0.032 | epoxomicin 0.027 | [3] 0.016 | [4] -0.011 | [5] -0.04 | rosiglitazone 0.006 | [6] -0.034 | [7] -0.028

RALB isoform 2 (UniProt P11234)
inactive: [1] 0.042 | volasertib 0.079 | [2] -0.027 | epoxomicin -0.033 | [3] -0.024 | [4] 0.062 | [5] -0.016 | rosiglitazone -0.002 | [6] -0.077 | [7] 0.083

RAB35 (UniProt Q15286)
inactive: [1] 0.092 | volasertib 0.091 | [2] -0.061 | epoxomicin 0.009 | [3] 0.098 | [4] 0.001 | [5] -0.008 | rosiglitazone -0.058 | [6] -0.048 | [7] 0.079

RAD1 (UniProt O60671)
inactive: [1] -0.001 | volasertib -0.034 | [2] -0.031 | epoxomicin -0.003 | [3] 0.03 | [4] -0.031 | [5] 0.059 | rosiglitazone 0.01 | [6] -0.022 | [7] -0.053

RAB1A (UniProt P62820)
inactive: [1] -0.016 | volasertib 0.068 | [2] -0.016 | epoxomicin 0.028 | [3] 0.052 | [4] 0.002 | [5] -0.021 | rosiglitazone -0.015 | [6] -0.031 | [7] 0.067

RAP2A (UniProt P10114)
inactive: [1] 0.059 | volasertib 0.035 | [2] -0.016 | epoxomicin -0.044 | [3] 0.008 | [4] -0.133 | [5] -0.007 | rosiglitazone -0.003 | [6] -0.029 | [7] 0.01
